{"sequences": {"note": "Amino acid sequences for entries named in this document (tags omitted).", "UniProt Q9ULV0": "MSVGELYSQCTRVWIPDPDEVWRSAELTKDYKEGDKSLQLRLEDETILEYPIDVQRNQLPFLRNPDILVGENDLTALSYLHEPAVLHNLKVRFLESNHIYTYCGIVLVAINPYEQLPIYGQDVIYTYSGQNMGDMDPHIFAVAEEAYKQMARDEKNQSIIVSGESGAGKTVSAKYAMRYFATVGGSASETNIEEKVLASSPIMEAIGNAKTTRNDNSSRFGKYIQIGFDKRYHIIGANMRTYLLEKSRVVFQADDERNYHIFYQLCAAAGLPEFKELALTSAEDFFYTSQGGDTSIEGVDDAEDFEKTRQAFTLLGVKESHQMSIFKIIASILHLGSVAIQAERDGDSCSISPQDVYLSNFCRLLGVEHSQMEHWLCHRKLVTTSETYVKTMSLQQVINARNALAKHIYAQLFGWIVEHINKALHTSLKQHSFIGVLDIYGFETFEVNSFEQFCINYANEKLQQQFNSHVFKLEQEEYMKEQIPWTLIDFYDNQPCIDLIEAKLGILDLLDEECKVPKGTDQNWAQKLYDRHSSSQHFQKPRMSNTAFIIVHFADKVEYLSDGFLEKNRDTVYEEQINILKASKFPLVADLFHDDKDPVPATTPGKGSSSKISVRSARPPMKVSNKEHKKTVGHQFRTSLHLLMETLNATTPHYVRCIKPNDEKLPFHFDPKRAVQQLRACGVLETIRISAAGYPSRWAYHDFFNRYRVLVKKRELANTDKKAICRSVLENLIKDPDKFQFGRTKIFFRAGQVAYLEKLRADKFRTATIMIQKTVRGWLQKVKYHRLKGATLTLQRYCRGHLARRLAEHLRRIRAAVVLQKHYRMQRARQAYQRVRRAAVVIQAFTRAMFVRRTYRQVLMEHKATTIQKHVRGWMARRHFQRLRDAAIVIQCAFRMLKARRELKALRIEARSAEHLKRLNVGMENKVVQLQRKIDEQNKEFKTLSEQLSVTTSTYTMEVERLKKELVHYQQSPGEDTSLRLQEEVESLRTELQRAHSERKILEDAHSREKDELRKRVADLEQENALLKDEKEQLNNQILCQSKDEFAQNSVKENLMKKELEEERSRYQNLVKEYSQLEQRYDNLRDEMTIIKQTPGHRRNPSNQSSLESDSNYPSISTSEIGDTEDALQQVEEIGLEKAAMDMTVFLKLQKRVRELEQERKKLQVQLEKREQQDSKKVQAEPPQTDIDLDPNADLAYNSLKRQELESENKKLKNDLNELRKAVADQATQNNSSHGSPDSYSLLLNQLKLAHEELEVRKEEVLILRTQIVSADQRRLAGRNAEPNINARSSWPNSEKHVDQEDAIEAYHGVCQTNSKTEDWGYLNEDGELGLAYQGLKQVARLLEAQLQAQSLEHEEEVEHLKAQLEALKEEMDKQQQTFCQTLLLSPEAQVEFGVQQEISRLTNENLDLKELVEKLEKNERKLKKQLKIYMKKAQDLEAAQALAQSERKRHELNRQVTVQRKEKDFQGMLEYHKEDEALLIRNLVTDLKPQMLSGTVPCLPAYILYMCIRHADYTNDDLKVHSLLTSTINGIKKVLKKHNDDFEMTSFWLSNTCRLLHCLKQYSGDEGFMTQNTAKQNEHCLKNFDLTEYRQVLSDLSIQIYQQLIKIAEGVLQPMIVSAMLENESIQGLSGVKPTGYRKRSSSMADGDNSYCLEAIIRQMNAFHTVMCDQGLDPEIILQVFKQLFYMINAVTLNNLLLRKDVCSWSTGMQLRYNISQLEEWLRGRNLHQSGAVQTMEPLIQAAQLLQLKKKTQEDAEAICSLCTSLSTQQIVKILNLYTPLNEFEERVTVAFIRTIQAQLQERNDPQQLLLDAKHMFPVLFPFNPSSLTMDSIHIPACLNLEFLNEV"}, "source": "paper PMC9106349", "target": "T1, myc-tagged UNC45A WT (human) (UniProt Q9H3U1)", "T1 sequence": "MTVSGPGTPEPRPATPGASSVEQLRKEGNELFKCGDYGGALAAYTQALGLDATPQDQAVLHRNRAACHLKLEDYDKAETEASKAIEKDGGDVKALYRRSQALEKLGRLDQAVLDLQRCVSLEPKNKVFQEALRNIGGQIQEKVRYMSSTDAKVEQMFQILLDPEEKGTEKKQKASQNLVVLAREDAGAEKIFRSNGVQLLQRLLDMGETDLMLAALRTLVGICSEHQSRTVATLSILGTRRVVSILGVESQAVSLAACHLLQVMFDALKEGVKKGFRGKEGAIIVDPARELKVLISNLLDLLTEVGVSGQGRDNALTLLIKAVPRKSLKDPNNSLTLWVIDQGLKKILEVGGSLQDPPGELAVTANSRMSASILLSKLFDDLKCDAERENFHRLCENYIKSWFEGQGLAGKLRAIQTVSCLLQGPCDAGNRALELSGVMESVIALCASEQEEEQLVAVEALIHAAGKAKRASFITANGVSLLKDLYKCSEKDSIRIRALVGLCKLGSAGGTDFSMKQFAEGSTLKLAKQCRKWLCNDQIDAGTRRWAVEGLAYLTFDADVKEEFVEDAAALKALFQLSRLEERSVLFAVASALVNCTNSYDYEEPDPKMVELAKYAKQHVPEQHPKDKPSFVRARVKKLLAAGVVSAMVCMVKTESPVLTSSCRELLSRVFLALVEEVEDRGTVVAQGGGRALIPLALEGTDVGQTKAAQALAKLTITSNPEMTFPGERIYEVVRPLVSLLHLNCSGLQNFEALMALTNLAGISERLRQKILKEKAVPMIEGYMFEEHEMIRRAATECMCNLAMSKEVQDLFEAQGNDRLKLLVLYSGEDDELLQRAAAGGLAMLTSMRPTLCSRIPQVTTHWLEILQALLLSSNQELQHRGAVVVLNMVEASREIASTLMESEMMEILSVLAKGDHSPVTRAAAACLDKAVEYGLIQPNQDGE", "test": "affinity purification with mass spectrometry; lysates of myc-tagged UNC45A Caco-2 cells and myc-tagged empty vector control cells immunoprecipitated with myc-Ab (μMACS c-myc Isolation Kit); lysis buffer 10 mM Tris/HCl, 150 mM NaCl, 0.5 mM EDTA, 0.5% NP40; Orbitrap mass spectrometry, 3 independent pull-down assays", "note": "These are yes or no findings as the source states them, for the method shown. In cells and extracts the contact can be indirect. A yes stands for co-enrichment or nearness to the bait. Other partners may have been found. Where a sequence is shown, tags or fusion partners need not be part of it.", "data": [{"substance": "myosin VB (from UniProt Q9ULV0 1-1848)", "values": [{"measurement": "binding", "value": "binds"}]}]}
